Values quoted from earlier work as cited in US20050032863A1, “Method of treating or preventing central nervous system disorders with compounds having selectivity for the alpha 3 subunit of the benzodiazepine receptor” (priority 2003, published 2005).
Where two headings read alike, the source gives them in different places.

System: 5-HT release in the brain
Details: literature reports, cited from earlier work

CN1C(=O)CN=C(c2ccccc2)c2cc(Cl)ccc21 [Diazepam, reference compound]
effect on 5-HT release / extracellular 5-HT in the brain: no effect
effect on 5-HT release / extracellular 5-HT in the brain (listed as diazepam): do not increase but rather decrease
